In US8187831B2, “Determination of ions using ion-sensitive enzymes” (General Atomics, priority 2003, dated 2012):
At least one compound was matched to its structure with a doubt left.

The chains behind the UniProt entries cited, without tags or fusion partners. Where a name states a change or a piece, a line headed by the entry shows the natural chain unless it says otherwise. A line that says so, or that is headed by a name, gives the form on record, which may keep a tag or linker.
UniProt P32179, other isoform, or with tags, fused parts or gaps: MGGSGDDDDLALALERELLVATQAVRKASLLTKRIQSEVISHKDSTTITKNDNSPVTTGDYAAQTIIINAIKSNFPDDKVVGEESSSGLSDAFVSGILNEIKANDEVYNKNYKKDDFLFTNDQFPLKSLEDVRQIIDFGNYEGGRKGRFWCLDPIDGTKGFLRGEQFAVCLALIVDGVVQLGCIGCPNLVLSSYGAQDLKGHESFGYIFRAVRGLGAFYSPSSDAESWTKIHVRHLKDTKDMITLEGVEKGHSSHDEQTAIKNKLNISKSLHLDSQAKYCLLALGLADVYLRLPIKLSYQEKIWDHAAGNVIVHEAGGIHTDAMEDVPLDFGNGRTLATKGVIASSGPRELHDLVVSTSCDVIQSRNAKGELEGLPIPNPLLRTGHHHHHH

Experiments:
[1] = biological target: T1, chimeric 3′(2′),5′-bisphosphate nucleotidase (Saccharomyces cerevisiae, UniProt P32179); format: biochemical, Saccharomyces cerevisaie; settings: substance at 10 mg/dl
T1 construct: His6 (C)
From the text: (§1) Assay Principle. […] Through enzymatic coupling, the phosphatase substrate, adenosine 3′,5′-bisphosphate (PAP) was converted to hypoxanthine by a series of enzymatic reactions to generate uric acid and hydrogen peroxide (H2O2). H2O2 generated reacts with N-Ethyl-N-(2-hydroxy-3-sulfopropyl)-3-m-toluidine (EHSPT) and 4-aminoantipyrine (4-AA) in the presence of peroxidase (POD) to form a quinone dye which had maximal absorbance at 556 nm. The rate of the quinine dye formation was inversely proportion to the concentration of sodium in serum samples. The enzymatic coupling reaction scheme is shown below in Table 3:
Key Assay Characteristics. The sodium enzymatic assay was a two reagent (R1 and R2) based kinetic assay system. The results were obtained in 10 min by measuring absorbance at 550 nm. No off line pretreatment was needed.
(§2) Assay Procedure. • 1. Reconstituted R1 and R2 reagents as described in Reagent Preparation section and kept the reconstituted R1 and R2 reagents on ice bath. • 2. In a cuvette, mixed 180 μL of Reagent R1 and 20 μL of serum sample and incubated at 37° C. for 1 minute and then added 85 μL of Reagent 2. • 3. Read absorbance (550 nm) at 3 min (2 min after addition of Reagent 2) as A1. Incubated for a further 7 min and read the absorbance at 10 min as A2. • 4. Calculated ΔA=A2−A1
Calibration. […] The sodium concentration of the sample was read from the calibration curve.

[2] = biological target: T1, chimeric 3′(2′),5′-bisphosphate nucleotidase; format: biochemical, Saccharomyces cerevisaie; settings: substance at 45 mg/dl
From the text: as §1, with “(H2O2). The” for “(H2O2).”, “reacted” for “reacts”, “lithium” for “sodium”, “6.” for “3:”
Key Assay Characteristics. The lithium enzymatic assay was a two reagent (R1 and R2) based kinetic assay system. The results were obtained in 10 min by measuring absorbance at 550 nm. No off line pretreatment was needed.
as §2, with “5” for “20”, “6 minutes” for “3 min (2 min after addition of Reagent 2)”, “3 more minutes” for “a further 7 min”, “9 minute” for “10 min”
Calibration and Quality Control. […] The lithium concentration of the sample was read from the calibration curve. […]

## C=CC1=C(C)/C(=C/c2[nH]c(Cc3[nH]c(/C=C4\NC(=O)C(C)=C4C=C)c(C)c3CCC(=O)O)c(CCC(=O)O)c2C)NC1=O [bilirubin]
[1]
  Interference with sodium assay: not interfered
[2]
  Interference with lithium assay: not interfered
